Laboratory results: PubChem BioAssay AID652259 (Drosophila RNAi Screening Center, 2013)

- Assay: 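Identify new Wingless signalling regulators in fly cells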 (primary screen)
- Cell system: Drosophila clone 8 imaginal disc epithelial cells
- Reagent: long dsRNA against Drosophila genes
- Conditions: pathway stimulated by co-transfected Wingless expression plasmid
- Measurement: 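Firefly luciferase from a tcf-site Wingless reporter, measured alongside co-transfected Renilla luciferase that tracks transfection; pathway stimulated by a Wingless plasmid; the firefly-to-Renilla ratio is not deposited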
- Reading the numbers: firefly reporter light: higher = more Wg reporter light, before normalisation; Renilla control light: higher = more transfected or surviving cells
- Rule for the call: 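Strong candidates differ from their plate mean by at least two out of four per-plate statistical tests; weak candidates meet just one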
- Calls: active = candidate regulator (raises or lowers reporter); inactive = not a candidate
The screen tested about 22,000 reagents; below is a random part of those with a known target gene and a result. In the full data, 233 (1.1%) are marked active. 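Light values are raw, unnormalised plate reads; the ratio scores behind the reporter calls were not deposited.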 Entries without a mark were called inactive. Reagents against one gene are numbered here. The record does not give: the amount of reagent, the time to read-out, the dose of the treatment.

gene	reagent no.	firefly reporter light, replicate 1	firefly reporter light, replicate 2	Renilla control light, replicate 1	Renilla control light, replicate 2
vret	1	2434	9065	1524	2496
TfIIS	1	9936		978	
CG9926	1	5104		2392	
chm	1	13059		5040	
nAChRalpha7	1	16761		11380	
nAChRalpha7	2	19734		10608	
fbp	1	16642		5341	
mid	1	2923	7526	1178	1508
mid	2	8.05e5	7.71e5	4.27e5	3.60e5
CG13748	1	2547	8697	817	2256
Galk	1	3478		1804	
apn	1	14685		3144	
UQCR-14L	1	10940		4933	
UQCR-14L	2	7.67e5	7.36e5	2.91e5	2.92e5
Vps16A	1	10004		1859	
GstE1	1	9181		2253	
CG5255	1	14653		4464	
CG12945	1	17715		4352	
CG31462 (retired record)	1	10649		3453	
fd19B	1	19409	6.72e5	14353	3.03e5
CG13674	1	2539	13475	2368	6064
CG15014	1	1883	5543	1180	2310
Fkbp59	1	2203	6577	784	2560
CG30284	1	3.67e5	4.52e5	1.97e5	2.32e5
CG2616	1	15664		2841	
DIP-gamma	1	3570	7234	2198	1036
CG33627	1	19878		17766	
btd	1	25624		9392	
Osi16	1	8264		1632	
Osi16	2	5.32e5	6.36e5	2.88e5	2.73e5
Eaf6	1	2412	11666	1268	4403
scrt	1	4204		739	
CG18294	1	16674		5180	
Herc4	1	5638		2969	
Rsph9	1	11620		11120	
Rox8	1	14229		11289	
pigs	1	3219		928	
pigs	2	14586		7485	
pigs	3	12785		8240	
CG13127	1	1783	7331	952	4085
CG6356	1	14928		14880	
CG8586	1	12061		4109	
CG7747	1	10548		3356	
Eaat2	1	24353		10021	
Eaat2	2	10008		5277	
CG6481	1	19410		10097	
CG32115	1	7.56e5	7.01e5	3.89e5	27639
spz	1	2954	8022	1424	2028
CG12540	1	24304		10432	
Cyp6a20	1	13648		3917	
CG15543	1	7165		2586	
CG3091	1	20752		13460	
CG14664	1	12144		2482	
ens	1	5240		2706	
CR33294	1	5.29e5	5.62e5	2.25e5	1.99e5
CG13126	1	2272	6025	897	3052
Jon99Fii	1	5891		3421	
CG18870	1	2402	7539	696	2714
ND-B14	1	4521	4956	981	2572
CG43155	1	23538		12403	
CG43155	2	22264		9680	
slv	1	2427	6034	896	2740
CG16959	1	2811		1250	
CG33784	1	4041		1787	
sws	1	3992		1384	
CG5880	1	1395	5465	740	1938
CG5214	1	21028		5158	
CG5214	2	5.91e5	6.96e5	1.85e5	1.57e5
DNAlig1	1	10964		2986	
AIF	1	8877		2187	
CG8838	1	12632		4608	
CG13427	1	8027		2193	
CG5087	1	1194	7795	877	2849
Mst57Db	1	9.06e5	8.57e5	4.23e5	4.03e5
CG7049	1	12327		3947	
elfless	1	2069	4268	860	3421
tutl	1	3621	7697	1031	1847
tutl	2	4458	8103	1002	1505
tutl	3	2294	4259	720	1389
ey	1	28311		11467	
CG44251	1	5501		1280	
CG14000	1	1720	5411	644	1222
prd1	1	28036		3978	
CG14402	1	2184	6810	774	2183
CG4367	1	12858		3520	
CG13544	1	2608	5848	774	2391
Patj	1	15280		3586	
lncRNA:CR32160	1	4.91e5	6.25e5	2.33e5	2.37e5
CG7137	1	14505		3984	
CG3339	1	3125		1436	
CG3339	2	5947		3767	
CG33235	1	20418		10624	
CG33500	1	3457		2106	

Reformatted: 10 of the entries above
gene,reagent no.,"firefly reporter light, replicate 1","firefly reporter light, replicate 2","Renilla control light, replicate 1","Renilla control light, replicate 2"
apn,1,14685,,3144,
UQCR-14L,1,10940,,4933,
UQCR-14L,2,7.67e5,7.36e5,2.91e5,2.92e5
Vps16A,1,10004,,1859,
GstE1,1,9181,,2253,
CG5255,1,14653,,4464,
CG12945,1,17715,,4352,
CG31462 (retired record),1,10649,,3453,
fd19B,1,19409,6.72e5,14353,3.03e5
CG13674,1,2539,13475,2368,6064
